Assay [1] has as its target complement C5a des-Arg, Human (human) (UniProt P01031). Description: SPR; BIAcore X100; C5a (1913 RU) or C5a des-Arg (1520 RU) amine-coupled to a CM5 sensorchip; C5aR1 (50 nM) co-injected with increasing concentrations of paclitaxel; both purified.
Assay [2] addresses human recombinant C5a (human) (UniProt P01031). The assay is described as above.

The chains behind the UniProt entries cited, without tags or fusion partners. Where a name states a change or a piece, a line headed by the entry shows the natural chain unless it says otherwise. Residues count along the entry.
UniProt P01031, residues 678-751: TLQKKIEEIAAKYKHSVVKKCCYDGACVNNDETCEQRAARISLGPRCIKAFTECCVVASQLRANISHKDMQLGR
UniProt P21730: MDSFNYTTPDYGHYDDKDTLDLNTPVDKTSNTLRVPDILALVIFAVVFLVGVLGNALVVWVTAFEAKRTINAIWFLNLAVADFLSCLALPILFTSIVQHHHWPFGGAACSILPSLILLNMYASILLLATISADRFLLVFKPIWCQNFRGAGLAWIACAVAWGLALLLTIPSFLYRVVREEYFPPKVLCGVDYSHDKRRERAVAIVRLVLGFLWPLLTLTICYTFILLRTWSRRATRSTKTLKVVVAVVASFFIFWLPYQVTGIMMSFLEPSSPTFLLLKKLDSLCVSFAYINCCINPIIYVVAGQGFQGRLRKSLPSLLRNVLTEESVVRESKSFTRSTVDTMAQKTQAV

No constants are given. Whether binding was seen depends on the method and setting. Binding calls can cover weak binding; strength is not graded here.

As for “recombinant human complement component 5a receptor 1 (C5aR1) with a C-terminal c-Myc tag (from UniProt P21730)”, the binding entry in assay [1] and in assay [2] was “binds” throughout.

The record behind these values is PMC9130998, “Paclitaxel binds and activates C5aR1: A new potential therapeutic target for the prevention of chemotherapy-induced peripheral neuropathy and hypersensitivity reactions” (Cell Death & Disease, 2022).
